Reference: patent US20040138204A1, “Compositions and methods for pain reduction” (priority 2002, published 2004)

Tested on: dorsal root ganglion
Experiment: Epidural infusion of radiolabeled glutamate, radiolabeling of dorsal root ganglion
Type: in vivo, rat

SMILES: N[C@@H](CCC(=O)O)C(=O)O [glutamate]
- side of significant radiolabeling of dorsal root ganglion (infusions below 0.22 mmol/L, epidural, 72 hours): significant radiolabeling occurred only on the side ipsilateral to the infusion catheter tip
- lowest infused concentration giving significant radiolabeling of the dorsal root ganglion (male Sprague-Dawley rats, epidural infusion over 72 hours): 0.003 mmol/L
